## Library screen at single concentrations

By UniProt entry, the sequences of proteins in these tests, tags left out. Residues count along the entry.
UniProt Q4DA54, 1-478: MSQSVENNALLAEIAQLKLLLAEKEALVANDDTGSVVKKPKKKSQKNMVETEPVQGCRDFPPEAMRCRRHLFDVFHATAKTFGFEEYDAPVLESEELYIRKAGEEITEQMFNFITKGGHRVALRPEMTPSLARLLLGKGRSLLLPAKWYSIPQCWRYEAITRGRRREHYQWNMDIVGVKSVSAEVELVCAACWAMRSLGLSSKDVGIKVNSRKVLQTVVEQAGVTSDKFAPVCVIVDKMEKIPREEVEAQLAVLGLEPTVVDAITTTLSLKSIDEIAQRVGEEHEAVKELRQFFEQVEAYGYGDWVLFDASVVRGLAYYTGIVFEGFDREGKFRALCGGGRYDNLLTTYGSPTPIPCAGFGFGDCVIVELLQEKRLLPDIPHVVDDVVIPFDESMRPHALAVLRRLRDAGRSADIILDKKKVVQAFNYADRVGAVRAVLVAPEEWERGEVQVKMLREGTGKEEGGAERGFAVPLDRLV
UniProt P9WPC5, whole entry: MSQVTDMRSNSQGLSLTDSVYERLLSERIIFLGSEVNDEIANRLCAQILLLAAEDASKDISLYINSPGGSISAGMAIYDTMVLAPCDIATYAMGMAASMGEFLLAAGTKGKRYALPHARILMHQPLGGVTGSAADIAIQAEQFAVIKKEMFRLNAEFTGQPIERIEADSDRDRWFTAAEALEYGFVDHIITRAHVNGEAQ
UniProt P9WPC3, whole entry partner: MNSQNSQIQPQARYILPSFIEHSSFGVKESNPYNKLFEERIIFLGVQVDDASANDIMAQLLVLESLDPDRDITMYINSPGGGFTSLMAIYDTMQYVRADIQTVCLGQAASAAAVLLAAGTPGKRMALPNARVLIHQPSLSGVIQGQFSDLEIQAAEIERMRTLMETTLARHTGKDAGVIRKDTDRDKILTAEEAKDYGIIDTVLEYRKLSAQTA
UniProt Q8IDJ8, 1-583: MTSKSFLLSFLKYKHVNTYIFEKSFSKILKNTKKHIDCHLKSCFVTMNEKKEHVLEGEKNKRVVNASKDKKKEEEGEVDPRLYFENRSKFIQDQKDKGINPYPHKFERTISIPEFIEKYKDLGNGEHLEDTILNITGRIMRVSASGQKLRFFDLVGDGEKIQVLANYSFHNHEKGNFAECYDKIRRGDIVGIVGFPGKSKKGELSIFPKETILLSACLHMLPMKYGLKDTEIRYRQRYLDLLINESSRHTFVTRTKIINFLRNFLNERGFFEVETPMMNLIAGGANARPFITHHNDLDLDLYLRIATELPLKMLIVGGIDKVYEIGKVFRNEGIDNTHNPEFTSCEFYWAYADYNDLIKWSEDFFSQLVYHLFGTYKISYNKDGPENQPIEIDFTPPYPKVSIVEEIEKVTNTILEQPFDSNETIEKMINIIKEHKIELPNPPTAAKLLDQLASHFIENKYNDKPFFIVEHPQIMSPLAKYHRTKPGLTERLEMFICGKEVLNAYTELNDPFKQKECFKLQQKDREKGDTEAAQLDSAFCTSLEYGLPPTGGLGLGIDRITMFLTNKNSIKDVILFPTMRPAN

Values are the deposited “Percent Effect”, in %. The record does not define 0% and 100%; most values in the screen are far below 50% and negative numbers occur (in some assays of this library far below -100). This is an unselected part of the compounds tested. Two or more numbers in one place are separate tests of the same structure; such repeats can differ widely. A dash means the value is not listed here; it may have been measured.

A: 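Cell assay of Leishmania donovani living inside macrophages; the read-out is not stated. Concentration: 30 µM. The record gives no direction; compounds that gave an IC50 in retests scored well above the rest, so higher reads as stronger inhibition. Size under these conditions: about 69,000 compounds, about 1,000 of them at 50% or above in at least one test.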
B: 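Histidine-tRNA ligase, Trypanosoma cruzi CL Brener (UniProt Q4DA54). Enzyme assay of histidyl-tRNA synthetase; the read-out is not stated. Concentration: 30 µM. Higher reads as stronger inhibition (inferred: compounds with an IC50 in retests scored well above the rest). Size under these conditions: about 69,000 compounds, about 31 of them at 50% or above in at least one test.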
C: 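ClpP1P2, Mycobacterium tuberculosis (UniProt P9WPC5 and UniProt P9WPC3). Protease assay of ClpP1P2, read by the AMC dye that it sets free. Compounds at 50 µM. Higher reads as stronger inhibition, judged from the few compounds that gave an IC50. Most other retested compounds had strongly negative values. Size under these conditions: about 69,000 compounds, about 10 of them at 50% or above in at least one test.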
D: 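Assay of Toxoplasma gondii numbers, read through their beta-galactosidase reporter with a colour substrate. Compounds at 10 µM. Higher reads as fewer parasites (inferred from which compounds were picked for retests). Size under these conditions: about 67,000 compounds, about 260 of them at 50% or above in at least one test.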
E: 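Enzyme assay of the cytosolic lysyl-tRNA synthetase in 384-well plates, read by luminescence. Target: Lysine-tRNA ligase, Plasmodium falciparum 3D7 (UniProt Q8IDJ8). Compounds at 30 µM. Higher reads as stronger inhibition, judged from the few compounds that gave an IC50. Size under these conditions: about 69,000 compounds, about 49 of them at 50% or above in at least one test.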

structure | A | B | C | D | E
CC(C(=O)O)N1CC2(CCC1=O)CCN(C/C=C/c1ccccc1)CC2 (stereo not shown) | -64.39% | 6.061% | 2.389% | -5.534% | 3.201%
CC(=O)N1CCCC(c2cnc(-c3c(C)nn(C)c3C)cn2)C1 (stereo not shown) | -3.163% | 2.732% | 8.76% | -3.383% | 2.133%
Cc1c[nH]c(C(=O)N2CCn3nc(C(=O)NC4CC4)cc3C2)n1 | -6.383% | -8.718% | 15.94% | 5.193% | -3.239%
O=C(O)c1cn(CC2CCCN(c3ccc4ccccc4n3)C2)nn1 (stereo not shown) | -5.89% | 13.1% | -14.95% | -14.41% | 2.939%
CNc1nc(C(=O)N2CCCC(COc3ccc(F)cc3)C2)cs1 (stereo not shown) | 27.29% | 8.696% | 3.773% | 23.83% | -6.133%
COCC1CN(C(=O)c2ccc(C)o2)Cc2nccn2C1 (stereo not shown) | 14.18% | -2.041% | 1.725% | 1.923% | -8.084%
CCc1c(C(=O)N2CCCN(C(C)=O)CC2)cnn1C(C)(C)C | -2.191% | -1.515% | 2.006% | -5.336% | 4.476%
CCCC1c2cccn2CCN1S(=O)(=O)N1CCOCC1 (stereo not shown) | 18.26% | 7.576% | -16.97% | 9.004% | 5.887%
Cc1nc(C)n(C2CCCN(C(=O)c3sccc3C)C2)n1 (stereo not shown) | 16.01% | 5.714% | -8.945% | -32% | 0.1052%
CCN1CCC(c2nc3ccc(NC4CCC4)cn3n2)CC1 | - | 8.543% | -1.064% | - | 2.539%
COc1ccc(S(=O)(=O)NC(=O)c2c(C)noc2C(C)C)cc1OC | 6.563% | -0.8333% | -13.53% | 5.724% | 1.202%
Cc1cccc(-n2ncc(C(=O)NCC3CCS(=O)(=O)C3)c2C)c1 (stereo not shown) | 10.39% | 2.305% | -21.91% | -22.78% | 0.4921%
[H][C@]12CC[C@]([H])(CN(S(=O)(=O)c3cccc(Cl)c3)C1)N(CCC)C2=O | 20.91% | - | - | -3.469% | -
O=C(C1=CCCC1)N1CCC[C@]2(C[C@@H](Oc3ncccc3F)CO2)C1.O=C(O)C(F)(F)F | 27.56% | - | - | -0.4698% | -
COc1c(CNCc2cccc(C(=O)N(C)C)c2)c(C)nn1C | 37.17% | 6.553% | -10.1% | -18.26% | 0%
[H][C@]12CCN(C(=O)C3CCCO3)CC[C@@]1([H])S(=O)(=O)N(CC(C)C)C2 (stereo partly shown) | 17.82% | - | - | -2.967% | -
COC(=O)c1ccc(N(C(=O)c2cscn2)C(C)C)c(C)c1 | 15.66% | 1.657% | -9.476% | 6.426% | 0.2013%
COc1ncccc1CN1CCC2(CC1)CN(c1ccccn1)CCO2 | - | 4.95% | 2.174% | - | 3.694%
CC(O)CCN(C)c1nc2ccccc2c(=O)[nH]1 (stereo not shown) | 14.49% | 1.571% | 3.609% | 4.359% | -4.223%
c1cnn(CC2CN(CC3CCCC3)CCO2)c1 (stereo not shown) | 1.465% | 3.383% | -4.088% | -0.2812% | 3.097%
CNCCN1C(=O)CC[C@H]2CN(c3cnc4ccccc4n3)CC[C@H]21 | - | 7.729% | -92.75% | - | 6.57%
Cc1cccnc1[C@H](C)NC(=O)c1cccc(CC2CCNCC2)c1 | 13.54% | 4.046% | 3.315% | 0.7317% | 3.438%
Cc1nn(C)c2c(=O)n(CC(=O)NC3CCCCC3)ccc12 | -12.83% | 1.508% | 1.09% | 7.186% | -0.8955%
Cc1cc(C)c(CNC(=O)NCC2CCCN2C)c(=O)[nH]1 (stereo not shown) | -24.87% | 1.141% | 9.795% | -2.399% | -7.385%
CCN(C)C(=O)c1cnc(-c2noc3cc(N4CCCCC4)ccc23)s1 | -7.49% | 7.362% | -7.312% | -1.755% | -4.173%
COc1cccnc1NC(=O)COc1ccc(F)cc1F | 9.238% | 2.956% | 8.447% | -0.3793% | 5.417%
CCN(CC)C(=O)c1ccc(CNc2ncc(C#N)cc2Cl)cc1 | 7.49% | 1.053% | -11.33% | -22.03% | 3.561%
NCCn1nc(C2CCN(Cc3ccccc3)C2)c2nccnc21 (stereo not shown) | 5.976% | 31.46% | -3.401% | 1.893% | -0.464%
CCc1cc(C(F)(F)F)n2nc(C3CCCN3C3CCSCC3)cc2n1 (stereo not shown) | - | 10.61% | 9.597% | - | -0.4553%
CN(C)C(=O)CN1CC[C@H]2CN(S(C)(=O)=O)C[C@@H]2C1=O | - | 7.767% | 7.188% | - | 4.222%
CN(Cc1nccs1)c1nccc(N2CCN[C@H]3CS(=O)(=O)C[C@H]32)n1 | - | 9.74% | -2.425% | - | 5.071%
CC(C)[C@H]1CN(C(=O)CC2CCC2)C[C@@H]1N(C)C | -11.69% | -1.493% | -5.212% | 14.6% | -2.119%
Cc1nccn1CCN(C)c1cc(C(C)C)nc2ccnn12 | 13.9% | 7.853% | 0.3181% | 5.476% | 1.141%
O=C(COCC1CCCO1)N1CCCN(Cc2ccccc2F)CC1 (stereo not shown) | 28.86% | 3.665% | -7.437% | -1.902% | 2.864%
Cc1noc(CCCC(=O)N(CCC(=O)O)Cc2ccc(F)c(F)c2)n1 | 15.48% | 3% | -1.865% | 0.9392% | -3.119%
CCn1nnc2c1C(COC)CN(Cc1ccsc1)C2.O=C(O)C(F)(F)F (stereo not shown) | 14.17% | - | - | 1.754% | -
CN(Cc1noc(C2CC2)n1)CC1CCN(CCO)CC1 | 5.169% | 3.941% | 8.358% | 2.023% | -0.7634%
CCc1nnc(NC(=O)N(CCOC)Cc2ccc(C)o2)s1 | 10.16% | 5.882% | -5.601% | 7.7% | -4.667%
Cn1cc(CN2CCn3cc(CNC(=O)CC4CC4)nc3C2)cn1.O=C(O)C(F)(F)F | 26.5% | - | - | 15.7% | -
CCN1CC(C(=O)NC(C)(C)CC(C)(C)C)CC1=O (stereo not shown) | -4.626% | -3.39% | -4.033% | 1.648% | 5.702%
O=C(c1ccccc1C1CCNC1)N1CCC(N2CCC(O)CC2)CC1 (stereo not shown) | -88.11% | 7.317% | -6.652% | -13.09% | 9.896%
Cn1cccc1C1CCCN1C(=O)NCCCn1cccn1 (stereo not shown) | 16.04% | 8.714% | -2.289% | -2.423% | 2.959%
CCn1cnnc1CNc1nc(C)nc2scc(CC(C)C)c12 | 5.195% | 14.07% | -2.725% | -4.669% | 1.531%
CCC(C)N1C(=O)c2ccc(C(=O)NCCc3c[nH]cn3)cc2C1=O (stereo not shown) | -11.39% and 17.95% | -1.205% | -3.758% | 12.71% | -0.7251%
COCCNC(=O)NC(=O)CNc1c(F)cccc1N1CCCC1 | -1.103% | 10.1% | -8.457% | -0.3152% | 0.1198%
CSc1ncc(C(=O)N2C[C@H]3CC[C@@H]2CN(S(=O)(=O)N(C)C)C3)cn1 | - | 10.34% | -11.78% | - | 8.109%
Cn1cc(-c2nc(CN3CCc4c(ncn4C)C3)cs2)cn1 | -10.49% | 9.677% | 7.394% | 11.97% | -3.434%
O=C(c1cscn1)N1C[C@@H]2C[C@@H](c3nnc(C4CC4)o3)O[C@@H]2C1 | - | 1.087% | -20.54% | - | 1.712%
O=C(CCn1ncc2ccccc21)N1CCCC(Cc2cccnc2)C1 (stereo not shown) | 2.986% and -3.343% | 6.593% | -4.747% | 7.613% | 3.158%
CN(C)Cc1cnc(C2CCN(C(=O)c3ccccc3F)C2)[nH]1.Cl (stereo not shown) | 16.45% | - | - | 28.6% | -
COCC1CN(C(=O)c2cccn2C)Cc2nccn2C1 (stereo not shown) | 3.326% | 6.011% | 0.1467% | 3.161% | 2.324%

4 of the entries, repeated:

| structure | A | B | C | D | E |
|---|---|---|---|---|---|
| `CCn1nnc2c1C(COC)CN(Cc1ccsc1)C2.O=C(O)C(F)(F)F` (stereo not shown) | 14.17% | - | - | 1.754% | - |
| `Cc1cc(C)c(CNC(=O)NCC2CCCN2C)c(=O)[nH]1` (stereo not shown) | -24.87% | 1.141% | 9.795% | -2.399% | -7.385% |
| `[H][C@]12CCN(C(=O)C3CCCO3)CC[C@@]1([H])S(=O)(=O)N(CC(C)C)C2` (stereo partly shown) | 17.82% | - | - | -2.967% | - |
| `Cc1cccnc1[C@H](C)NC(=O)c1cccc(CC2CCNCC2)c1` | 13.54% | 4.046% | 3.315% | 0.7317% | 3.438% |

Data taken from ChEMBL document CHEMBL3988442, “University of Dundee, Small-Polar-MMV Screening Library” (2021).